Assay results published in PubChem BioAssay AID1347426 (Functional Genomics Laboratory (NCATS/FGL), 2020).
In all, about 31,000 sequences went through this assay and about 1,400 (4.5%) were called active.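 Rule for the calls: active = median seed-adjusted z-score above 1 or below -1; inactive = the rest.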 This is one part of the list.

test: Novel Modifiers of Survival Motor Neuron (SMN) Protein: Gene Identification via Genome-wide siRNA Screen; conditions: HEK293T SMN2-luciferase reporter, siRNA knockdown, 72 h; actives lie on both sides;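 note: luminescence tracks full-length SMN protein made from the SMN2 reporter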
How it was run: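 Each of three siRNAs per gene is reverse-transfected (1 pmol) into reporter HEK293T cells whose luciferase output tracks SMN protein level. After 72 h culture, ONE-Glo luminescence is control-normalized, log10-transformed and MAD-standardized; Common Seed Analysis deprioritizes seed-driven hits.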

Sequence | median seed-adjusted z-score
GGAAUUAAACUAGAUCGAUTT against DGKE | inactive: -0.0589
GCAAAAUGAUCGCACAGAUTT against TRIML1 | inactive: 0
GAAUCACUCUGGAGAGCUATT against ILK | inactive: -0.231
CUAUUGGUUUCAUAACAUUTT against LIPJ | inactive: 0.295
GGAAGGGCUAUGUUACUAATT against ZNF155 | inactive: 0.698
UCUACGCAGUGGUCACCAATT against BLK | inactive: -0.274
GGUGUCCUUCUAUUCCAAUTT against CHRNB2 | inactive: -0.649
GUCUUGGAACUGUCUUAUUTT against TUBA1C | inactive: 0.157
GAAACGACAGUCAAAUUCATT against CD34 | inactive: -0.0898
CAGGGUUCCUGACAGAAUATT against MAPK1 | inactive: 0
GAGGCCACCUAUUGUUUCATT against MYL6B | inactive: 0.11
GCUGAUAUCGUCUUUGUUUTT against DNAJB1 | inactive: 0.466
GGGAAGUUCUUUACUCAGATT against ZNF501 | inactive: 0.19
AGUGUAACCAUCAGUUAAATT against CHCHD2 | inactive: 0.0884
CGUCUUUACAAAUACGGCATT against PARD6B | inactive: 0.315
GGAGGAUCUGAAUGCCUCATT against LDHD | inactive: 0
GAGAUUUGGUAAAUCGUUUTT against SPZ1 | inactive: 0.535
GGCUGUGAUUCACGACAAATT against KIF26B | inactive: -0.153
GUCAAGAAGUAUUUUGUCATT against FBXO6 | inactive: 0.0361
UAAAGUUCUUUUAUCCAUUTT against UBE2D3 | active: 1.62
GGAUAUACAGAAUGACAUUTT against ACBD5 | inactive: -0.118
CUCUGAAGGAUGCACCCAATT against CTBP1 | inactive: 0.105
GGCUUUCCACGAGCACUUCTT against RGS3 | inactive: 0.065

Sequence | median seed-adjusted z-score
GGAAUGACAUUGAUGAACATT against AMT | inactive: -0.506
CCAUGUCUACCAAAGUUUATT against PLSCR1 | inactive: 0.661
CCCUCAGUCAAAUUGCCUATT against CHMP4A | inactive: -0.209
AAAAAUCGCUGGACAUGUATT against DNASE2B | inactive: 0.86
CACCAUUGAAGUUCCCUUUTT against STARD3 | inactive: -0.314
GGAUUCACCUACGCUCUUATT against CHD1L | inactive: 0.63
GUUCAUGCAUGGGUGGAAATT against CD200R2 | inactive: -0.772
GGAACUACUGGUGAACUAUTT against MCAM | inactive: -0.0884
GCAGUGGCAAAAAUGGAAATT against CYP2W1 | inactive: -0.0986
CUUUCAACCUAUCCUCAAATT against ZNF107 | inactive: 0.0761
UCACAGCACUUGUGAGGAATT against SMPD1 | inactive: 0.353
GGAUCUGGGACUAAGGGUATT against PCDHB3 | inactive: 0.304
CCAUAUGAGUGUUCCGAAUTT against ZFP1 | inactive: 0.0391
CACUAUUUCCUGAUACAGATT against POLR3G | inactive: -0.485
GGAAAUCUCUUAGUAAUGATT against TAAR8 | inactive: 0.0792
GGACAUGCAAUGAAUUCAATT against CTSZ | inactive: -0.393
CCCAUGUUUCUAAUAAAUATT against ZNF415 | inactive: 0.222
GAUUAGAUCUAAACAAUCUTT against TTRAP | inactive: -0.33
GCAUCUAGGUACCAAUGGATT against OTUD7B | inactive: 0.226
GCAGAUGAGUCAUCUGUCATT against RBMS1 | inactive: 0.798
GAUCCUAUCUUACUAACCATT against IL7R | inactive: 0
GCUGAGAUGCGUAAGCAAATT against USP48 | inactive: 0.397
CCCGGUCACUUCUGAGAAATT against ZNF696 | inactive: 0.17

Sequence | median seed-adjusted z-score
CACUGCAAAUUAUUCCAUATT against RNF114 | inactive: 0.452
GCGCCGUGGUCAACAUCUUTT against SLC32A1 | inactive: -0.251
CCUUAUCGCUCAACAUGAATT against STK38 | inactive: -0.961
AGUUUUCCUUCCACACUAATT against RBP3 | inactive: 0
UGACAGUAGUUUAUCAAAATT against AREG | inactive: 0.104
CGGCAUCCUAUGUUAGAAATT against PRKAR1A | inactive: 0.428
CAUUCACCACAAUAGCUAUTT against GPR1 | inactive: 0.0609
ACACGUUCAGUGUCCCGAATT against IL28RA | inactive: 0
AGUUACUACCUUAUCCUCATT against POU2F2 | inactive: 0.163
CCUUAGGGAUUGUCAUCAATT against KREMEN1 | inactive: 0
CGCUCACACUGGGUUCCAATT against SLC34A1 | inactive: 0.139
GAAGAAUACCGGAAUAGCATT against CNDP1 | inactive: 0.203
GGACCUCCCUAGAAAGAAATT against TRERF1 | inactive: -0.0952
GGAUGUUAGUAAACUCUCUTT against PSMA4 | inactive: 0
GGAAAAUCGCAAUACUAUATT against CALR3 | inactive: -0.0828
CUAGUUACCUGGACAAAGATT against THRA | inactive: 0.13
CAAUCUCAAUCGUUGCUGATT against ATP5J2 | inactive: 0.00511
GAACUUGUCUUGCGCAAAATT against ZEB1 | inactive: -0.163
CCAUGAUCCUCUAACAUCATT against PAN3 | inactive: 0.349
GUGCUAACUCAAUUCCAUATT against SSBP3 | inactive: 0.00592
AAUUAUCACGACACUCUUATT against DNASE2B | inactive: 0.86
CACUAGCCUUGUUACCGUUTT against ERMP1 | inactive: 0.231
GAUGGGACAUCGUUGCUCATT against OASL | active: 1.02

A few values from the list:
Value of GUGCUAACUCAAUUCCAUATT against SSBP3 under median seed-adjusted z-score: inactive: 0.00592
Value of GGACCUCCCUAGAAAGAAATT against TRERF1 under median seed-adjusted z-score: inactive: -0.0952
Value of ACACGUUCAGUGUCCCGAATT against IL28RA under median seed-adjusted z-score: inactive: 0
Value of AGUUUUCCUUCCACACUAATT against RBP3 under median seed-adjusted z-score: inactive: 0
